Laboratory results reported in PMC4583784.
No constants are given. Whether binding was seen depends on the method and setting. In cells and extracts the contact can be indirect. Some entries that bind do so weakly or less than the wild type. One block for each molecule: values may come before it.

Protein sequences, listed by entry. Tags and fused reporters are not part of them. Residues count along the entry.
UniProt P46527, residues 1-109: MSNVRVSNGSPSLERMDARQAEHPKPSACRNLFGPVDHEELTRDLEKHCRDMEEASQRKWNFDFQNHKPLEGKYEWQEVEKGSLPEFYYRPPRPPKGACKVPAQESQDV
UniProt P46414: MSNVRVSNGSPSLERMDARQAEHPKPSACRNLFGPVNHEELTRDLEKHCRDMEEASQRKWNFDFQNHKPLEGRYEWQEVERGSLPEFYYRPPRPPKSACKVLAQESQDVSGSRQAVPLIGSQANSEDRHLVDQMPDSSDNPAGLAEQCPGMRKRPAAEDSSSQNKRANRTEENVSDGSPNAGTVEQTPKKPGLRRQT

What was measured:
[1] = target: CDK2 (mouse (endogenous in MEL)) (UniProt P97377); assay: co-IP; anti-CDK2 (1 µg, Protein A/G agarose) or IgG immunoprecipitates from MEL cells lysed in RIPA buffer; cells with vector-sh or Fbxo7-sh, with or without 6 days of DMSO; immunoblot
GST-p27 (1–109) = GST-p27 (1–109) (UniProt P46527); assay: pull-down; GST-p27 (1–109) as bait; increasing doses of in vitro transcribed and translated T7-Fbxo7 added; immunoblot, bound Fbxo7 quantified relative to input and as a percentage of Fbxo7 Met115; only the target purified

binding [1]: binds
Molecule: p27 (from UniProt P46414 1-197)

binding (GST-p27 (1–109)): binds
B1: T7-Fbxo7 (1–398) Met115 (domain or fragment, UniProt Q9Y3I1 1-398)
chain: MRLRVRLLKRTWPLEVPETEPTLGHLRSHLRQSLLCTWGYSSNTRFTITLNYKDPLTGDEETLASYGIVSGDLICLILQDDIPAPNIPSSTDSEHSSLQNNEQPSLATSSNQTSMQDEQPSDSFQGQAAQSGVWNDDSMLGPSQNFEAESIQDNAHMAEGTGFYPSEPMLCSESVEGQVPHSLETLYQSADCSDANDALIVLIHLLMLESGYIPQGTEAKALSMPEKWKLSGVYKLQYMHPLCEGSSATLTCVPLGNLIVVNATLKINNEIRSVKRLQLLPESFICKEKLGENVANIYKDLQKLSRLFKDQLVYPLLAFTRQALNLPDVFGLVVLPLELKLRIFRLLDVRSVLSLSAVCRDLFTASNDPLLWRFLYLRDFRDNTVRVQDTDWKELYRK

binding [1]: no binding
B2: Fbxo7 (endogenous murine) (protein, UniProt Q3U7U3 1-523)
chain: MKLRVRLQKRTQPLEVPESEPTLGQLRAHLSQVLLPTLGFSSDTRFAITLNNKDALTGDEETLASYGIVSGDLICLVLEDDMPAPNLPSSTDTEHSSLQDNDQPSLAATPSQTNIPDEQGTDSSQGQATPFDAWTDDSMEGPSQNVEAESIQDAMSMEEVSGFHPLEPMLCNETEDGQVPHSLETLYQSAGCSNISDALIVLVHLLMLESGYIPQGTETKAVTMPEKWKSSGVYKLQYTHPLCEGGFAVLTCVPLGNLIIINATIKVNGGIKNVKSVQLQPGSYVAAGVEPGESAAKVYKDLKKLSRLFKDQLVYPLLAFTRQVLNLPDVFGLVVLPLELKLRIFRLLDVHSVLALSAVCHDLLIASNDPLLWRCLYLRDFRDGTVRGPDTDWKELYRKKHIQRKEAQRMRHAMFLPSAHPIPFCPIPVYPRAYLPTSLLPPGIIGGEYDERPILPSVGDPVTSLIPRPGELPGQFRPLRPRFDPVDPLPGPHSLLPGRAIPNNRFPFRPGRGRSADSRLPFL
